Measurements taken from PMC9925317.

Sequences of proteins named here, by UniProt entry; tags and fusion partners are left off.
UniProt P13010: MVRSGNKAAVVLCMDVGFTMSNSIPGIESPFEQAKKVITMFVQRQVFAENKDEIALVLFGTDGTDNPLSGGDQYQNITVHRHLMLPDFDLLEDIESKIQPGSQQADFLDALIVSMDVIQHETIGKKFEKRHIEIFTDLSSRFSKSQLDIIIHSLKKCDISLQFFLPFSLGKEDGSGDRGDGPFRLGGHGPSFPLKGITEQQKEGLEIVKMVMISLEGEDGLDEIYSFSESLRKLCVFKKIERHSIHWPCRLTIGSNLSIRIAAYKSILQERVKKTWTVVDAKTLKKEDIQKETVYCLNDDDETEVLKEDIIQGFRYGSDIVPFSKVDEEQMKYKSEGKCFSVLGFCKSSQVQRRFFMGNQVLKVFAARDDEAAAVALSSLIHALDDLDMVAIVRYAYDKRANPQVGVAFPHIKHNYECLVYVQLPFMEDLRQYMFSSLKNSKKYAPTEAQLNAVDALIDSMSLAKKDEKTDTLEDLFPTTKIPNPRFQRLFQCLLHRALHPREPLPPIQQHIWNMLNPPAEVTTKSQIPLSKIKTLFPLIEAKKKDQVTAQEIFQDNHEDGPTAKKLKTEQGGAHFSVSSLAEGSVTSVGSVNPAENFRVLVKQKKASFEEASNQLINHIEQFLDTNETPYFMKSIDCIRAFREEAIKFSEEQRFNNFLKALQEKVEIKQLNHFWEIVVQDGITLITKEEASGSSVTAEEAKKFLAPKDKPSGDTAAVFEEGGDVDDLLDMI
UniProt Q14839: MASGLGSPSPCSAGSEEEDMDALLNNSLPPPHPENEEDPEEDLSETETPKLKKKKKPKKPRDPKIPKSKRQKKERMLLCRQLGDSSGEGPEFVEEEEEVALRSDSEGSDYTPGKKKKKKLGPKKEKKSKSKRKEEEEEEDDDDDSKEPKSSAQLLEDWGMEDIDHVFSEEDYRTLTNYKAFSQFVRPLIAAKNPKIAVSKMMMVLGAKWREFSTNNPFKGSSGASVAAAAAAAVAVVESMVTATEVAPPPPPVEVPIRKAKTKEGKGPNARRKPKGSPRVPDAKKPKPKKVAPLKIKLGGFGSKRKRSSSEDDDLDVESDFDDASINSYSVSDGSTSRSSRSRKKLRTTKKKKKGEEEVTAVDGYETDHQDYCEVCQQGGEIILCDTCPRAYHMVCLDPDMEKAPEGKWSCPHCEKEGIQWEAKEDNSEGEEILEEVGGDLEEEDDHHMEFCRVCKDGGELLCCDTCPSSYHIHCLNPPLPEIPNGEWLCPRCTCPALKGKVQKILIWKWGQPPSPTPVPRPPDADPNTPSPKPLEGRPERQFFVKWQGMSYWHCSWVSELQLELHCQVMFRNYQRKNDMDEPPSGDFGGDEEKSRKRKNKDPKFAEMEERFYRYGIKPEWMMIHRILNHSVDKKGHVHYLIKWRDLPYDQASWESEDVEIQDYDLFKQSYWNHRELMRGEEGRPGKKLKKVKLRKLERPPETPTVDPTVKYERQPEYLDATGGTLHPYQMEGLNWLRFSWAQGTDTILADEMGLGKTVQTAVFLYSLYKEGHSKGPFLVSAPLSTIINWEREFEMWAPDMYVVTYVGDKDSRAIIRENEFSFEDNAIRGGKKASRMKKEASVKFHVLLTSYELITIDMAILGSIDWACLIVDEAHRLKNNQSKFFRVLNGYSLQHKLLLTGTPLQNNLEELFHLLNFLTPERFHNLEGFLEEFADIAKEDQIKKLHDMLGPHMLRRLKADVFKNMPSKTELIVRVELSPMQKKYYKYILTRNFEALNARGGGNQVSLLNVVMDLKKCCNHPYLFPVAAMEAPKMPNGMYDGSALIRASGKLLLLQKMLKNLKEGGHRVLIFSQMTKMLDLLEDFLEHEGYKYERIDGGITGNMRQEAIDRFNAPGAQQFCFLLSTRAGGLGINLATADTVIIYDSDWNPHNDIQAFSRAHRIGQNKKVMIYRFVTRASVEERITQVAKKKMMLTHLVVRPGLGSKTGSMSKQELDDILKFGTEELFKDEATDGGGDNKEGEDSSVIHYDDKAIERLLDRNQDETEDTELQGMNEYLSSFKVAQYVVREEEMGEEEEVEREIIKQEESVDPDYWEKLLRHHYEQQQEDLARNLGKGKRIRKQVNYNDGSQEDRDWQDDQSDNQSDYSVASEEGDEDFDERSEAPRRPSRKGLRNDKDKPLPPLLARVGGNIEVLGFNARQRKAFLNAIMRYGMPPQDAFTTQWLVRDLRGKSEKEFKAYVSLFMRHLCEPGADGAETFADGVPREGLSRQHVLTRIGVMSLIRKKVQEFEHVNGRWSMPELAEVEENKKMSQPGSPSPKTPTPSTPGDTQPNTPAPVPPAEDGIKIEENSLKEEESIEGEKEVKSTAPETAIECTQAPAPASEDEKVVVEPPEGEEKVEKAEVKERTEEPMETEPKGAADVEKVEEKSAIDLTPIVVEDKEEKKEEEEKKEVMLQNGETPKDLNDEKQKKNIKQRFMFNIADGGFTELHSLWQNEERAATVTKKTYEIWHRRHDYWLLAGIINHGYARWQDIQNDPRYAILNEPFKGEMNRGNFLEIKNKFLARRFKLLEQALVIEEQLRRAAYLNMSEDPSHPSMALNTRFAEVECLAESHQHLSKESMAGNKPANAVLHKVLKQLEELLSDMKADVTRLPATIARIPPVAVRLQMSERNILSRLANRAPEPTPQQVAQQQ
UniProt P68400: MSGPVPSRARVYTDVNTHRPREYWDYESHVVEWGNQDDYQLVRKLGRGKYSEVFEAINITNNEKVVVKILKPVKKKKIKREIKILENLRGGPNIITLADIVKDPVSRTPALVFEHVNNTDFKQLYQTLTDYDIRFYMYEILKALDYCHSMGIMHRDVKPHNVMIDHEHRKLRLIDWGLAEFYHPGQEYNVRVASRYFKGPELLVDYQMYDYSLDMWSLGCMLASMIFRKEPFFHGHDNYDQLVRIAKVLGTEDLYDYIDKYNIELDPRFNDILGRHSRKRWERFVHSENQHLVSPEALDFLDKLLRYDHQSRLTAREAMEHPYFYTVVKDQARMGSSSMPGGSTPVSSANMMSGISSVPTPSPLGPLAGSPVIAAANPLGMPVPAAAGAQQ

Biological target: T1, SUMOylated MORC2 (WT Flag-MORC2 co-expressed with GFP-SUMOs in HEK293T cells) (human) (UniProt Q9Y6X9)
T1 sequence (chain, SUMO (GFP-SUMO1, GFP-SUMO2, GFP-SUMO3 co-expressed) conjugated at lysine 767): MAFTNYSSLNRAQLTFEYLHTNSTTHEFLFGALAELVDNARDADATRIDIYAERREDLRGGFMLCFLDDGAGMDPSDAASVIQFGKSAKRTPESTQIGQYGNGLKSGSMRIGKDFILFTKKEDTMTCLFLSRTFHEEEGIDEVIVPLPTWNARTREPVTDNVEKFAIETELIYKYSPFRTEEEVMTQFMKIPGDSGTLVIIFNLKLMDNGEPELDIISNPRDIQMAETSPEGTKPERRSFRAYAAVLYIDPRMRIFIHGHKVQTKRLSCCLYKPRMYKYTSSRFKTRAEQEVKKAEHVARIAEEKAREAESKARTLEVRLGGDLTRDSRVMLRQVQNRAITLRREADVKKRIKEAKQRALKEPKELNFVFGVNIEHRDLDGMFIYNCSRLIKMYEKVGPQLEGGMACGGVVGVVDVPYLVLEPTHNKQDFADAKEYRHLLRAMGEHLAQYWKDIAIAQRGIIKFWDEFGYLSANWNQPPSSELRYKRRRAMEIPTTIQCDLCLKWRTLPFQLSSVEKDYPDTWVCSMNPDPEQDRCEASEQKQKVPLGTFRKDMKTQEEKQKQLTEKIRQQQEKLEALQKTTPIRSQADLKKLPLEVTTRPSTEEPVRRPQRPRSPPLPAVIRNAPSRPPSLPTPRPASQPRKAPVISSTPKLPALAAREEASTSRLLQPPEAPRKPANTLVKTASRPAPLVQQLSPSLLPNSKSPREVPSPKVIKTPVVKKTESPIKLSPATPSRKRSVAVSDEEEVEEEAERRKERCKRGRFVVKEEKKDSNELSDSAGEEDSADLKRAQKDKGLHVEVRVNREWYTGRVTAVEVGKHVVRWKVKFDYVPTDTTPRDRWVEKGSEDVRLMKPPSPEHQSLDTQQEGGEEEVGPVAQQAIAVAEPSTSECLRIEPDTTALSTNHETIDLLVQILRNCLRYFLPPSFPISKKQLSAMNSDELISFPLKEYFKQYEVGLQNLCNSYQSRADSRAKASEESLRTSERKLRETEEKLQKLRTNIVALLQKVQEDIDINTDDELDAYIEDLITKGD
Experiment: affinity purification with mass spectrometry; HEK293T cells transfected with WT-MORC2 and GFP-SUMOs; anti-Flag beads; SDS-PAGE, LC-MS/MS; proteins found in the pCDH control taken as nonspecific

Substance | binding
endogenous XRCC5 (X-ray repair cross complementing 5) (from UniProt P13010 1-732) | binds
endogenous CHD4 (chromodomain helicase DNA binding protein 4) (from UniProt Q14839 1-1912) (enzyme) | binds
endogenous CSK21 (casein kinase II subunit alpha) (from UniProt P68400 1-391) (enzyme) | binds

Results are given in words; binding and its absence hold for the method and conditions named. Binding seen in cells or lysates may run through a third protein. These calls come from enrichment with a bait or labelling near it, and not all partners need be listed. Tags and fused reporters may be left off the sequences shown.
